The values that follow come from patent US20050112108A1.

Results are given in words; binding and its absence hold for the method and conditions named. Some binding calls cover weakened binding; strength is not graded here.

In this test the target is in vitro translated GAAP-1 (human) (UniProt P15822). As to the kind of experiment: EMSA, in vitro translated GAAP-1 with NF-κB oligonucleotide. For orientation: In EMSA bound probe runs differently from free probe, usually more slowly.

Take “in vitro translated GAAP-1 (from UniProt P15822 2027-2718)”: the binding entry was “binds”.
